# B1: INA (protein, UniProt Q16352 1-499, looked up)
# Alpha-internexin: MSFGSEHYLCSSSSYRKVFGDGSRLSARLSGAGGAGGFRSQSLSRSNVASSAACSSASSLGLGLAYRRPPASDGLDLSQAAARTNEYKIIRTNEKEQLQGLNDRFAVFIEKVHQLETQNRALEAELAALRQRHAEPSRVGELFQRELRDLRAQLEEASSARSQALLERDGLAEEVQRLRARCEEESRGREGAERALKAQQRDVDGATLARLDLEKKVESLLDELAFVRQVHDEEVAELLATLQASSQAAAEVDVTVAKPDLTSALREIRAQYESLAAKNLQSAEEWYKSKFANLNEQAARSTEAIRASREEIHEYRRQLQARTIEIEGLRGANESLERQILELEERHSAEVAGYQDSIGQLENDLRNTKSEMARHLREYQDLLNVKMALDIEIAAYRKLLEGEETRFSTSGLSISGLNPLPNPSYLLPPRILSATTSKVSSTGLSLKKEEEEEEASKVASKKTSQIGESFEEILEETVISTKKTEKSNIEETTISSQKI
# B2: DDX3X (protein, UniProt O00571 2-662, looked up)
# ATP-dependent RNA helicase …: SHVAVENALGLDQQFAGLDLNSSDNQSGGSTASKGRYIPPHLRNREATKGFYDKDSSGWSSSKDKDAYSSFGSRSDSRGKSSFFSDRGSGSRGRFDDRGRSDYDGIGSRGDRSGFGKFERGGNSRWCDKSDEDDWSKPLPPSERLEQELFSGGNTGINFEKYDDIPVEATGNNCPPHIESFSDVEMGEIIMGNIELTRYTRPTPVQKHAIPIIKEKRDLMACAQTGSGKTAAFLLPILSQIYSDGPGEALRAMKENGRYGRRKQYPISLVLAPTRELAVQIYEEARKFSYRSRVRPCVVYGGADIGQQIRDLERGCHLLVATPGRLVDMMERGKIGLDFCKYLVLDEADRMLDMGFEPQIRRIVEQDTMPPKGVRHTMMFSATFPKEIQMLARDFLDEYIFLAVGRVGSTSENITQKVVWVEESDKRSFLLDLLNATGKDSLTLVFVETKKGADSLEDFLYHEGYACTSIHGDRSQRDREEALHQFRSGKSPILVATAVAARGLDISNVKHVINFDLPSDIEEYVHRIGRTGRVGNLGLATSFFNERNINITKDLLDLLVEAKQEVPSWLENMAYEHHYKGSSRGRSKSSRFSGGFGARDYRQSSGASSSSFSSSRASSSRSGGGGHGSSRGFGGGGYGGFYNSDGYGGNYNSQGVDWWGN
# B3: NXF1 (protein, UniProt Q9UBU9 2-619, looked up)
# Nuclear RNA export factor 1: ADEGKSYSEHDDERVNFPQRKKKGRGPFRWKYGEGNRRSGRGGSGIRSSRLEEDDGDVAMSDAQDGPRVRYNPYTTRPNRRGDTWHDRDRIHVTVRRDRAPPERGGAGTSQDGTSKNWFKITIPYGRKYDKAWLLSMIQSKCSVPFTPIEFHYENTRAQFFVEDASTASALKAVNYKILDRENRRISIIINSSAPPHTILNELKPEQVEQLKLIMSKRYDGSQQALDLKGLRSDPDLVAQNIDVVLNRRSCMAATLRIIEENIPELLSLNLSNNRLYRLDDMSSIVQKAPNLKILNLSGNELKSERELDKIKGLKLEELWLDGNSLCDTFRDQSTYISAIRERFPKLLRLDGHELPPPIAFDVEAPTTLPPCKGSYFGTENLKSLVLHFLQQYYAIYDSGDRQGLLDAYHDGACCSLSIPFIPQNPARSSLAEYFKDSRNVKKLKDPTLRFRLLKHTRLNVVAFLNELPKTQHDVNSFVVDISAQTSTLLCFSVNGVFKEVDGKSRDSLRAFTRTFIAVPASNSGLCIVNDELFVRNASSEEIQRAFAMPAPTPSSSPVPTLSPEQQEMLQAFSTQSGMNLEWSQKCLQDNNWDYTRSAQAFTHLKAKGEIPEVAFMK
# B4: Igh-6 (protein, UniProt P01872 1-454, looked up)
# Immunoglobulin heavy constant …: SQSFPNVFPLVSCESPLSDKNLVAMGCLARDFLPSTISFTWNYQNNTEVIQGIRTFPTLRTGGKYLATSQVLLSPKSILEGSDEYLVCKIHYGGKNRDLHVPIPAVAEMNPNVNVFVPPRDGFSGPAPRKSKLICEATNFTPKPITVSWLKDGKLVESGFTTDPVTIENKGSTPQTYKVISTLTISEIDWLNLNVYTCRVDHRGLTFLKNVSSTCAASPSTDILTFTIPPSFADIFLSKSANLTCLVSNLATYETLNISWASQSGEPLETKIKIMESHPNGTFSAKGVASVCVEDWNNRKEFVCTVTHRDLPSPQKKFISKPNEVHKHPPAVYLLPPAREQLNLRESATVTCLVKGFSPADISVQWLQRGQLLPQEKYVTSAPMPEPGAPGFYFTHSILTVTEEEWNSGETYTCVVGHEALPHLVTERTVDKSTGKPTLYNVSLIMSDTGGTCY
# B5: TXN (protein, UniProt P10599 2-105, looked up)
# Thioredoxin: VKQIESKTAFQEALDAAGDKLVVVDFSATWCGPCKMIKPFFHSLSEKYSNVIFLEVDVDDCQDVASECEVKCMPTFQFFKKGQKVGEFSGANKEKLEATINELV
# B6: SLC12A6 (protein, UniProt Q9UHW9 1-1150, looked up)
# Solute carrier family 12 …: MHPPETTTKMASVRFMVTPTKIDDIPGLSDTSPDLSSRSSSRVRFSSRESVPETSRSEPMSEMSGATTSLATVALDPPSDRTSHPQDVIEDLSQNSITGEHSQLLDDGHKKARNAYLNNSNYEEGDEYFDKNLALFEEEMDTRPKVSSLLNRMANYTNLTQGAKEHEEAENITEGKKKPTKTPQMGTFMGVYLPCLQNIFGVILFLRLTWVVGTAGVLQAFAIVLICCCCTMLTAISMSAIATNGVVPAGGSYFMISRALGPEFGGAVGLCFYLGTTFAAAMYILGAIEIFLVYIVPRAAIFHSDDALKESAAMLNNMRVYGTAFLVLMVLVVFIGVRYVNKFASLFLACVIVSILAIYAGAIKSSFAPPHFPVCMLGNRTLSSRHIDVCSKTKEINNMTVPSKLWGFFCNSSQFFNATCDEYFVHNNVTSIQGIPGLASGIITENLWSNYLPKGEIIEKPSAKSSDVLGSLNHEYVLVDITTSFTLLVGIFFPSVTGIMAGSNRSGDLKDAQKSIPIGTILAILTTSFVYLSNVVLFGACIEGVVLRDKFGDAVKGNLVVGTLSWPSPWVIVIGSFFSTCGAGLQSLTGAPRLLQAIAKDNIIPFLRVFGHSKANGEPTWALLLTAAIAELGILIASLDLVAPILSMFFLMCYLFVNLACALQTLLRTPNWRPRFRYYHWALSFMGMSICLALMFISSWYYAIVAMVIAGMIYKYIEYQGAEKEWGDGIRGLSLSAARFALLRLEEGPPHTKNWRPQLLVLLKLDEDLHVKHPRLLTFASQLKAGKGLTIVGSVIVGNFLENYGEALAAEQTIKHLMEAEKVKGFCQLVVAAKLREGISHLIQSCGLGGMKHNTVVMGWPNGWRQSEDARAWKTFIGTVRVTTAAHLALLVAKNISFFPSNVEQFSEGNIDVWWIVHDGGMLMLLPFLLKQHKVWRKCSIRIFTVAQLEDNSIQMKKDLATFLYHLRIEAEVEVVEMHDSDISAYTYERTLMMEQRSQMLRHMRLSKTERDREAQLVKDRNSMLRLTSIGSDEDEETETYQEKVHMTWTKDKYMASRGQKAKSMEGFQDLLNMRPDQSNVRRMHTAVKLNEVIVNKSHEAKLVLLNMPGPPRNPEGDENYMEFLEVLTEGLERVLLVRGGGSEVITIYS
# B7: SCGB2A1 (protein, UniProt O75556 19-95, looked up)
# Mammaglobin-B: DSGCKLLEDMVEKTINSDISIPEYKELLQEFIDSDAAAEAMGKFKQCFLNQSHRTLKNFGLMMHTVYDSIWCNMKSN
# B8: MED23 (protein, UniProt Q9ULK4 1-1368, looked up)
# Mediator of RNA polymerase II …: METQLQSIFEEVVKTEVIEEAFPGMFMDTPEDEKTKLISCLGAFRQFWGGLSQESHEQCIQWIVKFIHGQHSPKRISFLYDCLAMAVETGLLPPRLVCESLINSDTLEWERTQLWALTFKLVRKIIGGVDYKGVRDLLKVILEKILTIPNTVSSAVVQQLLAAREVIAYILERNACLLPAYFAVTEIRKLYPEGKLPHWLLGNLVSDFVDTFRPTARINSICGRCSLLPVVNNSGAICNSWKLDPATLRFPLKGLLPYDKDLFEPQTALLRYVLEQPYSRDMVCNMLGLNKQHKQRCPVLEDQLVDLVVYAMERSETEEKFDDGGTSQLLWQHLSSQLIFFVLFQFASFPHMVLSLHQKLAGRGLIKGRDHLMWVLLQFISGSIQKNALADFLPVMKLFDLLYPEKEYIPVPDINKPQSTHAFAMTCIWIHLNRKAQNDNSKLQIPIPHSLRLHHEFLQQSLRNKSLQMNDYKIALLCNAYSTNSECFTLPMGALVETIYGNGIMRIPLPGTNCMASGSITPLPMNLLDSLTVHAKMSLIHSIATRVIKLAHAKSSVALAPALVETYSRLLVYMEIESLGIKGFISQLLPTVFKSHAWGILHTLLEMFSYRMHHIQPHYRVQLLSHLHTLAAVAQTNQNQLHLCVESTALRLITALGSSEVQPQFTRFLSDPKTVLSAESEELNRALILTLARATHVTDFFTGSDSIQGTWCKDILQTIMSFTPHNWASHTLSCFPGPLQAFFKQNNVPQESRFNLKKNVEEEYRKWKSMSNENDIITHFSMQGSPPLFLCLLWKMLLETDHINQIGYRVLERIGARALVAHVRTFADFLVYEFSTSAGGQQLNKCIEILNDMVWKYNIVTLDRLILCLAMRSHEGNEAQVCYFIIQLLLLKPNDFRNRVSDFVKENSPEHWLQNDWHTKHMNYHKKYPEKLYFEGLAEQVDPPVQIQSPYLPIYFGNVCLRFLPVFDIVIHRFLELLPVSKSLETLLDHLGGLYKFHDRPVTYLYNTLHYYEMHLRDRAFLKRKLVHAIIGSLKDNRPQGWCLSDTYLKCAMNAREENPWVPDDTYYCRLIGRLVDTMAGKSPGPFPNCDWRFNEFPNPAAHALHVTCVELMALAVSGKEVGNALLNVVLKSQPLVPRENITAWMNAIGLIITALPEPYWIVLHDRIVSVISSPSLTSETEWVGYPFRLFDFTACHQSYSEMSCSYTLALAHAVWHHSSIGQLSLIPKFLTEVLLPIVKTEFQLLYVYHLVGPFLQRFQQERTRCMIEIGVAFYDMLLNVDQCSTHLNYMDPICDFLYHMKYMFTGDSVKEQVEKIICNLKPALKLRLRFITHISKMEPAAVPPQAMNSGSPAPQSNQVPVSLPVTQ
# Tested on: mSWI/SNF complexes
# Assay: mSWI/SNF complex purification with HA-tagged baits and mass spectrometry (peptide counts)
# Parameters: species or system human
# Conditions: 293_HA-BRD7 bait purification, mass spectrometry; total peptide count per identified protein
row,Molecule,Total
1,B1,1
2,B2,1

# Same assay, conditions: 293_HA-BRD7 bait purification, mass spectrometry; total peptides per co-purified protein
row,Molecule,Total
1,B3,2
2,B4,2

# Same assay, conditions: 293_HA-BRD7 bait purification, mass spectrometry; unique peptide count per identified protein
row,Molecule,Unique
1,B1,1
2,B2,1

# Same assay, conditions: 293_HA-BRD7 bait purification, mass spectrometry; unique peptides per co-purified protein
row,Molecule,Unique
1,B3,2
2,B4,2

# Same assay, conditions: total peptide count of the co-purified protein; 293_HA-BRD9 (HA-BRD9 bait, mass spectrometry), Table 3b
row,Molecule,Total
1,B5,1
2,B6,1
3,B1,1
4,B7,1
5,B2,1
6,B3,1
7,B8,1
8,B4,1

# Same assay, conditions: unique peptide count of the co-purified protein; 293_HA-BRD9 (HA-BRD9 bait, mass spectrometry), Table 3b
row,Molecule,Unique
1,B5,1
2,B6,1
3,B1,1
4,B7,1
5,B2,1
6,B3,1
7,B8,1
8,B4,1
